Sequences of proteins named here, by UniProt entry; tags and fusion partners are left off.
UniProt P67809: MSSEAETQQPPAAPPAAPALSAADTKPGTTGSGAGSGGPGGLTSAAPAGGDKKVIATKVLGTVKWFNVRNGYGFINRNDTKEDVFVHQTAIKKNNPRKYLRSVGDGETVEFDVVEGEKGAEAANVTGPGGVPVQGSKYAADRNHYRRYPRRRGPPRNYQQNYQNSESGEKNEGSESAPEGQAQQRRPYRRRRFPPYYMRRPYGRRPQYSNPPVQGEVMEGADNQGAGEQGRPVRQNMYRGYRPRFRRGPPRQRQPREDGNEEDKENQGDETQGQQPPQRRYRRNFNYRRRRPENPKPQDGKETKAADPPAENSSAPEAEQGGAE
UniProt P26641: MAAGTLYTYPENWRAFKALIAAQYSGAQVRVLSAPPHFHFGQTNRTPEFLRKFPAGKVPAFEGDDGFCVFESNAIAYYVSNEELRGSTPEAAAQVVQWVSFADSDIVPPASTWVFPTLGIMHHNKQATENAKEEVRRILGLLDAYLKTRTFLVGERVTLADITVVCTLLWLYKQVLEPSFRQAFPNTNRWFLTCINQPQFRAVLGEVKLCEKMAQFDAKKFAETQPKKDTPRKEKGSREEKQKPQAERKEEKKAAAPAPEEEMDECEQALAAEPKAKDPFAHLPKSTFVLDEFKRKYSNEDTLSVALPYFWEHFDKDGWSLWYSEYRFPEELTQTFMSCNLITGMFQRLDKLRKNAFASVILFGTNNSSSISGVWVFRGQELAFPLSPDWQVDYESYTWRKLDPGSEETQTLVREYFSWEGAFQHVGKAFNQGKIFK

According to publication PMC11893173:

T1: SNX10-EGFP WT (sorting nexin 10, EGFP-tagged) (human) (UniProt Q9Y5X0)
T1 sequence: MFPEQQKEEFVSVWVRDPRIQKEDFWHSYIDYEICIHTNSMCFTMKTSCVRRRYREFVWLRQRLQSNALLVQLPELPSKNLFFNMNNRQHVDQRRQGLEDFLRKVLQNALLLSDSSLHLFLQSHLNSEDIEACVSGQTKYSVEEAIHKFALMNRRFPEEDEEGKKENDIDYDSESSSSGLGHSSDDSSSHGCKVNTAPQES

B1: SLC25A6 (protein, UniProt P12236 1-298)
chain: MTEQAISFAKDFLAGGIAAAISKTAVAPIERVKLLLQVQHASKQIAADKQYKGIVDCIVRIPKEQGVLSFWRGNLANVIRYFPTQALNFAFKDKYKQIFLGGVDKHTQFWRYFAGNLASGGAAGATSLCFVYPLDFARTRLAADVGKSGTEREFRGLGDCLVKITKSDGIRGLYQGFSVSVQGIIIYRAAYFGVYDTAKGMLPDPKNTHIVVSWMIAQTVTAVAGVVSYPFDTVRRRMMMQSGRKGADIMYTGTVDCWRKIFRDEGGKAFFKGAWSNVLRGMGGAFVLVLYDELKKVI
B2: GBA (protein, UniProt P04062 40-536)
chain: ARPCIPKSFGYSSVVCVCNATYCDSFDPPTFPALGTFSRYESTRSGRRMELSMGPIQANHTGTGLLLTLQPEQKFQKVKGFGGAMTDAAALNILALSPPAQNLLLKSYFSEEGIGYNIIRVPMASCDFSIRTYTYADTPDDFQLHNFSLPEEDTKLKIPLIHRALQLAQRPVSLLASPWTSPTWLKTNGAVNGKGSLKGQPGDIYHQTWARYFVKFLDAYAEHKLQFWAVTAENEPSAGLLSGYPFQCLGFTPEHQRDFIARDLGPTLANSTHHNVRLLMLDDQRLLLPHWAKVVLTDPEAAKYVHGIAVHWYLDFLAPAKATLGETHRLFPNTMLFASEACVGSKFWEQSVRLGSWDRGMQYSHSIITNLLYHVVGWTDWNLALNPEGGPNWVRNFVDSPIIVDITKDTFYKQPMFYHLGHFSKFIPEGSQRVGLVASQKNDLDAVALMHPDGSAVVVVLNRSSKDVPLTIKDPAVGFLETISPGYSIHTYLWRRQ
B3: ATP5J, a subunit of the mitochondrial ATP synthase (protein, UniProt P18859 33-108)
chain: NKELDPIQKLFVDKIREYKSKRQTSGGPVDASSEYQQELERELFKLKQMFGNADMNTFPTFKFEDPKFEVIEKPQA
B4: ATPIF1 (protein, UniProt Q9UII2 26-106)
chain: GSDQSENVDRGAGSIREAGGAFGKREQAEEERYFRAQSREQLAALKKHHEEEIVHHKKEIERLQKEIERHKQKIKMLKHDD
B5: SERPINH1 (protein, UniProt P50454 19-418)
chain: AEVKKPAAAAAPGTAEKLSPKAATLAERSAGLAFSLYQAMAKDQAVENILVSPVVVASSLGLVSLGGKATTASQAKAVLSAEQLRDEEVHAGLGELLRSLSNSTARNVTWKLGSRLYGPSSVSFADDFVRSSKQHYNCEHSKINFRDKRSALQSINEWAAQTTDGKLPEVTKDVERTDGALLVNAMFFKPHWDEKFHHKMVDNRGFMVTRSYTVGVMMMHRTGLYNYYDDEKEKLQIVEMPLAHKLSSLIILMPHHVEPLERLEKLLTKEQLKIWMGKMQKKAVAISLPKGVVEVTHDLQKHLAGLGLTEAIDKNKADLSRMSGKKDLYLASVFHATAFELDTDGNPFDQDIYGREELRSPKLFYADHPFIFLVRDTQSGSLLFIGRLVRPKGDKMRDEL

target: T1, SNX10-EGFP WT (sorting nexin 10, EGFP-tagged) (human); assay: affinity purification with mass spectrometry; GFP-Trap (ChromoTek) pull-down from lysates of U2OS cells stably expressing SNX10-EGFP, SNX10(Y32S)-EGFP or EGFP (control); NP-40 lysis buffer (50 mM HEPES pH 7.4, 150 mM NaCl, 1 mM EDTA, 10% glycerol, 0.5% NP-40); on-bead trypsin digest, LC-MS/MS, biological triplicates; hits by limma, log2FC >1 and adjusted P <0.05 against EGFP

Q: How did the binding turn out when YBX1 (from UniProt P67809 1-324) was run?
A: binds

Q: UQCRFS1 (human (endogenous in U2OS)) was tested. Which binding did it give?
A: binds

Q: EEF1G (from UniProt P26641 1-437) was tested. Which binding did it give?
A: binds

Q: Which binding does the source give for MVB12A (from UniProt Q96EY5 1-273) here?
A: binds

Q: For B1, which binding is on record?
A: binds

Q: B2 was tested. Which binding did it give?
A: binds

Q: With B3 as the molecule, how does the binding read?
A: binds

Q: B4 was tested. Which binding did it give?
A: binds

Q: B5 was tested. Which binding did it give?
A: binds

These are yes or no findings as the source states them, for the method shown. In cells and extracts the contact can be indirect. Here binding means that the protein was enriched with, or labelled near, the bait; the list need not be complete. Sequences can lack the tags named with a protein.
